{"source": "patent US20120042409", "key": {"Cre recombinase": {"target": "T1, Cre recombinase (UniProt P06956)", "T1 sequence (looked up, limits assumed)": "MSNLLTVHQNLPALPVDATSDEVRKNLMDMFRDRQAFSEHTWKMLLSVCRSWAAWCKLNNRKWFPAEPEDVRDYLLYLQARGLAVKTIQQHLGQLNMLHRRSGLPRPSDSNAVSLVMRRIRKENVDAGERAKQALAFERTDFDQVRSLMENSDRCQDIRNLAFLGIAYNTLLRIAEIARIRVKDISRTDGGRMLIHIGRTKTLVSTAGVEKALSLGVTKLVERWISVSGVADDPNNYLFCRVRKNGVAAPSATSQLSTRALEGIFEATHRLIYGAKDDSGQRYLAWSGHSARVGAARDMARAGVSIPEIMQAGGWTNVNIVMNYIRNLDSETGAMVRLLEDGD", "assay": "activity in cells", "details": "protein in cells, only the site is given"}, "FLP recombinase": {"target": "T2, FLP recombinase (UniProt P03870)", "T2 sequence (looked up, limits assumed)": "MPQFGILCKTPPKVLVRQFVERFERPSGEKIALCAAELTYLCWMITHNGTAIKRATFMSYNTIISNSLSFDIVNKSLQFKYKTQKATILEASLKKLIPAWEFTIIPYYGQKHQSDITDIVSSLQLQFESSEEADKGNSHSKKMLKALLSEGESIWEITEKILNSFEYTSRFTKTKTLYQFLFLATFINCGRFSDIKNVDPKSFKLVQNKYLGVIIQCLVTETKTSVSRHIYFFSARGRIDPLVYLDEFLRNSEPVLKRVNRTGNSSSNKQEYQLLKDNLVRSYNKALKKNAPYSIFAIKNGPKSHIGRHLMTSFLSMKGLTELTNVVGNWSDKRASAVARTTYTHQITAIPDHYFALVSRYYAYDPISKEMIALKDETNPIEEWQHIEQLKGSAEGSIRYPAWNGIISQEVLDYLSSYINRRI", "assay": "activity in cells", "details": "partial recombination between two POTFRT sites in pPOTFRT2 (unrecombined fragment remained); 37 C; sequenced; protein in cells; only the site is given"}}, "note": "Tags and fusion partners may be left off the protein sequences shown.", "data": [{"sequence": "CTTCGTATAATGTATGCTATACGAA (double strand) [petunia-derived loxP site]", "values": [{"measurement": "activity on this sequence", "setting": "Cre recombinase; intramolecular recombination between two direct sites in pUC57PhMCcabDP and pUC57PhMCcabPH, 37 C induction, none at 28 C uninduced", "value": "active"}]}, {"sequence": "CCGAATTCGTATAGCATACATTATACGAAGGCAT (double strand) [potato loxP-like site (POTLOXP)]", "values": [{"measurement": "activity on this sequence", "setting": "Cre recombinase; recombination between two POTLOXP sites in pPOTLOXP2 and Stan2 derivatives, 37 C, sequenced, base pair faithful", "value": "active"}]}, {"sequence": "TCTGTTCCTATACTTTCTAGAGAATAGGAAGTTG (double strand) [potato frt-like site (POTFRT)]", "values": [{"measurement": "activity on this sequence", "setting": "FLP recombinase", "value": "active"}]}]}
